These are yes or no findings as the source states them, for the method shown. In cells and extracts the contact can be indirect. Some binding calls cover weakened binding; strength is not graded here. Sequences can lack the tags named with a protein.
T1: Myc-ULK1 wild type (UniProt O75385)
T1 sequence: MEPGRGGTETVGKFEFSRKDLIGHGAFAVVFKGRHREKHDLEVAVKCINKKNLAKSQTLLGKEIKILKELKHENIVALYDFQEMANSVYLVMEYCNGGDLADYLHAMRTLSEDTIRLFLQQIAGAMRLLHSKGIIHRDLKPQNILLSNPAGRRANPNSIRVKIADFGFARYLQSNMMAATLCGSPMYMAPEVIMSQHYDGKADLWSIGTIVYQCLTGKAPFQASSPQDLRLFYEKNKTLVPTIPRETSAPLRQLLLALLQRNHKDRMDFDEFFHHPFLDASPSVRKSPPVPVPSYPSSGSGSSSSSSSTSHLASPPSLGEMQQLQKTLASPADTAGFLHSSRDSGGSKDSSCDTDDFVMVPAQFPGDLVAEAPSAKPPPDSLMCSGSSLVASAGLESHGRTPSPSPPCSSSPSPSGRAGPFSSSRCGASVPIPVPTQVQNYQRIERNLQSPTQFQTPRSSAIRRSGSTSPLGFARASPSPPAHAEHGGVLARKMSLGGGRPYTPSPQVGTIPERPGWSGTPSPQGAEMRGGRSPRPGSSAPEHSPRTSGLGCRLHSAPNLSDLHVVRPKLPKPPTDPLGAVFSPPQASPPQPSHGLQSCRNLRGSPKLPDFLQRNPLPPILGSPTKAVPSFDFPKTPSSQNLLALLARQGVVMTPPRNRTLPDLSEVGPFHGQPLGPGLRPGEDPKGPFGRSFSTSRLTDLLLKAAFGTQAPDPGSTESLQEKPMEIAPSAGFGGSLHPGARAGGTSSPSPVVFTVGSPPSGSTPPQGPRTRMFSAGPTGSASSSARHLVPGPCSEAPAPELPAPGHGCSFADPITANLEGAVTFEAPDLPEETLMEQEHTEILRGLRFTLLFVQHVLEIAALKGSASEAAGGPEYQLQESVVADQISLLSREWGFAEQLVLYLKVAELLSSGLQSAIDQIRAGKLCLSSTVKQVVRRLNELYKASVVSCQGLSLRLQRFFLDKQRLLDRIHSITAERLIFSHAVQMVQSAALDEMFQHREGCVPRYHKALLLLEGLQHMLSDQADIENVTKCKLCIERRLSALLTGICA

Protein sequences, listed by entry. Tags and fused reporters are not part of them.
UniProt Q15436: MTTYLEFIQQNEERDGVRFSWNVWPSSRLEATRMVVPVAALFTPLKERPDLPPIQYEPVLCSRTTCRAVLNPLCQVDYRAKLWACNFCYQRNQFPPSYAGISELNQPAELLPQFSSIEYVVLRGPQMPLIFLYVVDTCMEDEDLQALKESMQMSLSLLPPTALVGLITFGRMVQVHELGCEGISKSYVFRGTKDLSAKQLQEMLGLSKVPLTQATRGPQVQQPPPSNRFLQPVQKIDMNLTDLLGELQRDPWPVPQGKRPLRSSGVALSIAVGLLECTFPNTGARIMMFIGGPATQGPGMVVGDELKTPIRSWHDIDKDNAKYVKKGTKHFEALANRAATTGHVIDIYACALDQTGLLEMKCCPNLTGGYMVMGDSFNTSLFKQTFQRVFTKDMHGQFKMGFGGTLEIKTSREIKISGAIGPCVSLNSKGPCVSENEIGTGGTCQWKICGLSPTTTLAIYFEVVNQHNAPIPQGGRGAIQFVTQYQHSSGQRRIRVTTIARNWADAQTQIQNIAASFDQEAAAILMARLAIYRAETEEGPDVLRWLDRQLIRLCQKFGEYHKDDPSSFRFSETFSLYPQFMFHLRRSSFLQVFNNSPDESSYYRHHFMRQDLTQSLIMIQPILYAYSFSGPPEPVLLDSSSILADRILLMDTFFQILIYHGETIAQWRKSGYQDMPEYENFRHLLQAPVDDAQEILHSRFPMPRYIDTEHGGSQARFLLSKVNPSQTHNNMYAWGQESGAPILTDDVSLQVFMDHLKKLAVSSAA
UniProt Q8WVT3: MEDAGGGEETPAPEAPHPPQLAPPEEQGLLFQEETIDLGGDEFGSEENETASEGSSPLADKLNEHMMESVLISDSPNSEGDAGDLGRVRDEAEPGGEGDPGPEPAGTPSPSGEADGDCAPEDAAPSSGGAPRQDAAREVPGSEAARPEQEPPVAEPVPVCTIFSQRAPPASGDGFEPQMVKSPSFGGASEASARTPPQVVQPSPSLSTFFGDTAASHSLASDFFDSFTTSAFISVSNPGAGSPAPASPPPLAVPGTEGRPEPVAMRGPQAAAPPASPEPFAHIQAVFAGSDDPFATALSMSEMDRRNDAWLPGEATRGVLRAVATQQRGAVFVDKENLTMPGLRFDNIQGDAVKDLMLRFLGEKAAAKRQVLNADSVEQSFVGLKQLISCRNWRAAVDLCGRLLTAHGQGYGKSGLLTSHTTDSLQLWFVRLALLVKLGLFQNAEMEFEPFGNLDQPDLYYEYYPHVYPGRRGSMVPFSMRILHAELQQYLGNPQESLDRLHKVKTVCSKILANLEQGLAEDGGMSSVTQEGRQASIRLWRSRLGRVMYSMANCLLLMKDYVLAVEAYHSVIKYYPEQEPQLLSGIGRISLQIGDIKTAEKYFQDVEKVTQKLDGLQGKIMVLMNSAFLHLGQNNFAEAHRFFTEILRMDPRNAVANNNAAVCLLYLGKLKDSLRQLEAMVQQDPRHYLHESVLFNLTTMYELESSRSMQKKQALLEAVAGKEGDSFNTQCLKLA

T2: Myc-ULK1 wild type, O75385
T2 chain: T1 sequence

B1: GFP-Sec31A, O94979 1-1220 (protein)
chain: MKLKEVDRTAMQAWSPAQNHPIYLATGTSAQQLDATFSTNASLEIFELDLSDPSLDMKSCATFSSSHRYHKLIWGPYKMDSKGDVSGVLIAGGENGNIILYDPSKIIAGDKEVVIAQNDKHTGPVRALDVNIFQTNLVASGANESEIYIWDLNNFATPMTPGAKTQPPEDISCIAWNRQVQHILASASPSGRATVWDLRKNEPIIKVSDHSNRMHCSGLAWHPDVATQMVLASEDDRLPVIQMWDLRFASSPLRVLENHARGILAIAWSMADPELLLSCGKDAKILCSNPNTGEVLYELPTNTQWCFDIQWCPRNPAVLSAASFDGRISVYSIMGGSTDGLRQKQVDKLSSSFGNLDPFGTGQPLPPLQIPQQTAQHSIVLPLKKPPKWIRRPVGASFSFGGKLVTFENVRMPSHQGAEQQQQQHHVFISQVVTEKEFLSRSDQLQQAVQSQGFINYCQKKIDASQTEFEKNVWSFLKVNFEDDSRGKYLELLGYRKEDLGKKIALALNKVDGANVALKDSDQVAQSDGEESPAAEEQLLGEHIKEEKEESEFLPSSGGTFNISVSGDIDGLITQALLTGNFESAVDLCLHDNRMADAIILAIAGGQELLARTQKKYFAKSQSKITRLITAVVMKNWKEIVESCDLKNWREALAAVLTYAKPDEFSALCDLLGTRLENEGDSLLQTQACLCYICAGNVEKLVACWTKAQDGSHPLSLQDLIEKVVILRKAVQLTQAMDTSTVGVLLAAKMSQYANLLAAQGSIAAALAFLPDNTNQPNIMQLRDRLCRAQGEPVAGHESPKIPYEKQQLPKGRPGPVAGHHQMPRVQTQQYYPHGENPPPPGFIMHGNVNPNAAGQLPTSPGHMHTQVPPYPQPQPYQPAQPYPFGTGGSAMYRPQQPVAPPTSNAYPNTPYISSASSYTGQSQLYAAQHQASSPTSSPATSFPPPPSSGASFQHGGPGAPPSSSAYALPPGTTGTLPAASELPASQRTGPQNGWNDPPALNRVPKKKKMPENFMPPVPITSPIMNPLGDPQSQMLQQQPSAPVPLSSQSSFPQPHLPGGQPFHGVQQPLGQTGMPPSFSKPNIEGAPGAPIGNTFQHVQSLPTKKITKKPIPDEHLILKTTFEDLIQRCLSSATDPQTKRKLDDASKRLEFLYDKLREQTLSPTITSGLHNIARSIETRNYSEGLTMHTHIVSTSNFSETSAFMPVLKVVLTQANKLGV

Experiments:
Myc-ULK1 wild type [1] = target: T1, Myc-ULK1 wild type; test: co-IP; Myc-ULK1 WT co-transfected pairwise with GFP-tagged COPII components in HEK293T; ULK1 immunoprecipitated by anti-Myc, blot with anti-GFP
Myc-ULK1 wild type [2] = target: T1, Myc-ULK1 wild type; test: co-IP; Myc-ULK1 and FLAG-FIP200 co-transfected with GFP fusion constructs; Myc-ULK1 immunoprecipitated with anti-c-Myc, GFP fusions detected; cells in complete growth medium or deprived of amino acids; RIPA (150 mM NaCl, 20 mM Tris pH 8.0, 0.01% NP-40), 4 °C, 3 h
[3] = target: T2, Myc-ULK1 wild type, O75385; test: co-IP; Myc-ULK1 WT co-transfected pairwise with GFP-tagged COPII components in HEK293T; ULK1 immunoprecipitated by anti-Myc, blot with anti-GFP; conditions: remark: other sources report otherwise

Molecule | binding (Myc-ULK1 wild type [1]) | binding (Myc-ULK1 wild type [2]) | binding [3]
GFP-Sec23A (from UniProt Q15436 1-765) | binds | binds | –
GFP-TRAPPC12 (from UniProt Q8WVT3 1-735) | – | no binding | –
B1 | – | – | no binding

Source: PMC5424413
